We go through 33 compounds from the supplement of paper PMC10735217.

Some of the results follow. Repeats in this data set agree poorly, so a single value says little.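 In a drug-repurposing library screen, luminescence reads luciferase driven by eight TEAD-binding elements, stably integrated into human kidney-derived cells. Compounds scoring over five robust Z scores above the plate mean are called hits.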

The test has as its system HEK293A TEAD-LUC reporter. The test can be described thus: TEAD-luciferase reporter activity (YAP activation), robust Z score vs plate; higher = stronger YAP/TEAD activation. The settings on record: 24 h.

With `O=C(Nc1ccc(Cl)c(Cl)c1)NS(=O)(=O)c1ccc2c(c1)CCO2`, the TEAD-luciferase reporter activity runs as follows: (compound concentration: 200 nM) inactive: -1.29; (compound concentration: 2 uM) inactive: -0.518; (compound concentration: 10 uM) inactive: -0.242.
As to `O=S(=O)(Nc1ccc(CCNC[C@H](O)c2cccnc2)cc1)c1ccc(-c2nc(-c3ccc(C(F)(F)F)cc3)cs2)cc1`, the TEAD-luciferase reporter activity by setting is: (compound concentration: 200 nM) inactive: -1.2; (compound concentration: 2 uM) inactive: -1.48; (compound concentration: 10 uM) inactive: 0.105.
On the same counts, the results for `CCOC(=O)c1ccc(OC(=O)CCCCCNC(=N)N)cc1` [Gabexate mesilate] are inactive: 2.12, inactive: -0.416 and inactive: -0.925.
On the same counts, the results for `CC(C)NCC(O)COc1ccccc1C(C)(C)C` (stereo unspecified) are inactive: -1.2, inactive: -0.397 and inactive: -1.04.
On the same counts, the results for `CNC(=O)[C@H](Cc1ccccc1)NC(=O)[C@@H](CC(C)C)S[C@H]1CN(C(=O)NCCN2C(=O)c3ccccc3C2=O)C[C@H]1S` are inactive: -0.951, inactive: 0.616 and inactive: 1.41.
As to `Cc1ccccc1OCC(O)CN1CCN(c2ccc(F)cc2)CC1` (stereo unspecified), the TEAD-luciferase reporter activity reads like this: (compound concentration: 200 nM) inactive: 3.62; (compound concentration: 2 uM) inactive: -1.44; (compound concentration: 10 uM) inactive: -0.349.
Consider `Cc1cc(NS(=O)(=O)c2ccc(N)cc2)sn1`, for which the TEAD-luciferase reporter activity reads like this: (compound concentration: 200 nM) inactive: -2.46; (compound concentration: 2 uM) inactive: -1.32; (compound concentration: 10 uM) inactive: 1.4.
On the same counts, the results for `CCOc1nc2cccc(C(=O)O)c2n1Cc1ccc(-c2ccccc2-c2noc(=O)[nH]2)cc1` [Azilsartan] are inactive: -0.648, inactive: -0.306 and inactive: -1.53.
On the same counts, the results for `CCCCC1=NC2(CCCC2)C(=O)N1Cc1ccc(-c2ccccc2S(=O)(=O)Nc2noc(C)c2C)c(COCC)c1` [Sparsentan] are inactive: 0.04, inactive: -1.23 and inactive: 0.822.
As to `CCOc1cc2ncc(C#N)c(Nc3ccc(OCc4ccccn4)c(Cl)c3)c2cc1NC(=O)/C=C/CN(C)C` [neratinib], the TEAD-luciferase reporter activity (compound concentration: 2 uM) is inactive: -2.16.
As to `CCOc1cc2ncc(C#N)c(Nc3ccc(OCc4ccccn4)c(Cl)c3)c2cc1NC(=O)/C=C/CN(C)C`, the TEAD-luciferase reporter activity (compound concentration: 200 nM) was inactive: -0.261 and the TEAD-luciferase reporter activity (compound concentration: 10 uM) is inactive: 0.376.
On to `CCCc1c(OCC(O)COc2ccc3c(=O)cc(C(=O)O)oc3c2CCC)ccc(C(C)=O)c1O` (stereo unspecified), for which the TEAD-luciferase reporter activity runs as follows: (compound concentration: 200 nM) inactive: -1.86; (compound concentration: 2 uM) inactive: -2.73; (compound concentration: 10 uM) inactive: -2.42.
`O=C(c1ccc(Oc2ccccc2)cc1Cl)c1c[nH]c2ncnc(N[C@@H]3CC[C@@H](CO)OC3)c12`: the TEAD-luciferase reporter activity is inactive: -1.33 (compound concentration: 200 nM) and inactive: -1.17 (compound concentration: 10 uM).
On to `OCc1ccc2c(c1)C(N1CCC(O)(c3ccccc3)CC1)c1ccccc1CO2` (stereo unspecified), for which the TEAD-luciferase reporter activity (compound concentration: 200 nM) is inactive: -1.25, the TEAD-luciferase reporter activity (compound concentration: 2 uM) is inactive: 0.541 and the TEAD-luciferase reporter activity (compound concentration: 10 uM) was inactive: 2.71.
On the same counts, the results for `CCCCN(CCC1CCCCC1)Cc1ccc(C(=O)N[C@@H](CCSC)C(=O)O)c(-c2ccccc2C)c1` are inactive: -0.118, inactive: 0.286 and inactive: 2.37.
On the same counts, the results for `O=C(O)C1=Cc2sc(Cn3ccnc3)cc2CC1` [Imitrodast sodium] are inactive: 0.518, inactive: -0.656 and inactive: -0.0819.
On the same counts, the results for `O=C(O)Cc1ccc(C2CCCCC2)cc1` are inactive: -1.22, inactive: 1.2 and inactive: -1.8.
As to `CC(=O)OCC1=C(C(=O)O)N2C(=O)C(NC(=O)Cc3ccccc3)C2SC1` (stereo unspecified), the TEAD-luciferase reporter activity is, setting by setting: (compound concentration: 200 nM) inactive: -0.275; (compound concentration: 2 uM) inactive: 0.132; (compound concentration: 10 uM) inactive: -1.12.
Consider `COC(=O)C(N)Cc1ccc(Oc2ccc(/C=C3/SC(=O)NC3=O)cc2)cc1` (stereo unspecified), for which the TEAD-luciferase reporter activity is inactive: -2.18 (compound concentration: 200 nM), inactive: -0.339 (compound concentration: 2 uM) and inactive: -0.416 (compound concentration: 10 uM).
As for `CC(C)C=O` [Isobutyraldehyde], the TEAD-luciferase reporter activity by setting is: (compound concentration: 2 uM) inactive: 0.616; (compound concentration: 10 uM) inactive: -1.31.
As to `Nc1ccn(C[C@@H]2COP(=O)(O)CO2)c(=O)n1`, the TEAD-luciferase reporter activity was inactive: -0.238 (compound concentration: 200 nM), inactive: -1.39 (compound concentration: 2 uM) and inactive: -0.548 (compound concentration: 10 uM).
Consider `CCC(=O)OC(CC(=O)O)C[N+](C)(C)C` [propionyl L-carnitine], for which, for the setting “compound concentration: 2 uM”, the TEAD-luciferase reporter activity was inactive: -1.23.
Consider `CCC(=O)OC(CC(=O)O)C[N+](C)(C)C` [propionyl L-carnitine, Sigma], for which the TEAD-luciferase reporter activity was inactive: 1.27 (compound concentration: 200 nM) and inactive: -0.178 (compound concentration: 10 uM).
Consider `COC[C@H](C)Oc1cc(Oc2cnc(C(=O)N3CCC3)cn2)cc(C(=O)Nc2ccc(OC)cc2)c1`, for which the TEAD-luciferase reporter activity is inactive: 1.13 (compound concentration: 200 nM), inactive: -1.2 (compound concentration: 2 uM) and inactive: -0.313 (compound concentration: 10 uM).
Turning to `O=C(O)[C@H]1C2CCC(CC2)[C@@H]1Nc1nc(-c2c[nH]c3ncc(F)cc23)ncc1F` [Pimodivir], the TEAD-luciferase reporter activity by setting is: (compound concentration: 200 nM) inactive: 2.15; (compound concentration: 2 uM) inactive: -1.32; (compound concentration: 10 uM) inactive: -0.524.
Regarding `Cc1nc(N)c2cc(-n3nc(C(F)(F)F)cc3C(=O)Nc3ccc(-c4ccccc4S(N)(=O)=O)cc3F)ccc2n1`, the TEAD-luciferase reporter activity was inactive: 0.312 (compound concentration: 200 nM), inactive: -2.32 (compound concentration: 2 uM) and inactive: -1.53 (compound concentration: 10 uM).
For `CN(CCN1CCC(OC(=O)Nc2ccccc2-c2ccccc2)CC1)C(=O)c1ccc(CN2CCC(C(N)=O)CC2)cc1` [Revefenacin], the TEAD-luciferase reporter activity runs as follows: (compound concentration: 200 nM) inactive: -1; (compound concentration: 2 uM) inactive: -0.705; (compound concentration: 10 uM) inactive: -0.276.
Consider `COCc1nnc(-c2cccnc2)n1-c1c(Cl)c(Cl)cc2c1=NC(=O)C(=O)N=2`, for which the TEAD-luciferase reporter activity reads like this: (compound concentration: 200 nM) inactive: -0.474; (compound concentration: 2 uM) inactive: 2.27; (compound concentration: 10 uM) inactive: -0.499.
Consider `CC(C)(C)NC(=O)[C@H]1CC[C@H]2[C@@H]3CC[C@H]4NC(=O)C=C[C@]4(C)[C@H]3CC[C@]12C`, for which the TEAD-luciferase reporter activity is, setting by setting: (compound concentration: 200 nM) inactive: -0.926; (compound concentration: 10 uM) inactive: -0.315.
For `CC(C)(C)NC(=O)[C@H]1CC[C@H]2[C@@H]3CC[C@H]4NC(=O)C=C[C@]4(C)[C@H]3CC[C@]12C` [finasteride], the TEAD-luciferase reporter activity (compound concentration: 2 uM) was inactive: -1.36.
`COC(=O)C1=C(C)NC(C)=C(P2(=O)OCCCO2)C1c1ccccc1[N+](=O)[O-]` (stereo unspecified): the TEAD-luciferase reporter activity (compound concentration: 200 nM) is inactive: -1.3, the TEAD-luciferase reporter activity (compound concentration: 2 uM) was inactive: -0.962 and the TEAD-luciferase reporter activity (compound concentration: 10 uM) is inactive: 0.293.
On the same counts, the results for `CCCCCOc1ccc(-c2ccc(-c3ccc(C(=O)N[C@H]4C[C@@H](O)[C@@H](O)NC(=O)[C@@H]5[C@@H](O)[C@@H](C)CN5C(=O)[C@H]([C@@H](C)O)NC(=O)[C@H]([C@H](O)[C@@H](O)c5ccc(O)cc5)NC(=O)[C@@H]5C[C@@H](O)CN5C(=O)[C@H]([C@@H](C)O)NC4=O)cc3)cc2)cc1` [Anidulafungin] are inactive: -0.743, inactive: 0.239 and inactive: -0.327.
Regarding `CCCCCOc1ccc(-c2ccc(-c3ccc(C(=O)N[C@H]4C[C@@H](O)[C@@H](O)NC(=O)[C@@H]5[C@@H](O)[C@@H](C)CN5C(=O)[C@H]([C@@H](C)O)NC(=O)[C@H]([C@H](O)[C@@H](O)c5ccc(O)cc5)NC(=O)[C@@H]5C[C@@H](O)CN5C(=O)[C@H]([C@@H](C)O)NC4=O)cc3)cc2)cc1` [anidulafungin], the TEAD-luciferase reporter activity (compound concentration: 2 uM) is inactive: 0.913.
